Reference: paper PMC4135091
These are yes or no findings as the source states them, for the method shown. For some assays here: Binding seen in cells or lysates may run through a third protein. Some entries that bind do so weakly or less than the wild type.

How the values were obtained:
[1] = molecular target: FLAG-tagged N1 (vaccinia virus (VACV)) (UniProt P17361); assay: co-IP
[2] = molecular target: TAP-tagged N1 expressed from the recombinant vaccinia virus vN1.TAP (vaccinia virus strain Western Reserve) (UniProt P17361); assay: dimer-sized band on a gel after tandem affinity purification

In the case of “N1 fused with Renilla luciferase at its N terminus (from UniProt P17361 1-117)”, the binding [1] is reported as “binds”.

For “TAP-tagged N1 expressed from the recombinant vaccinia virus vN1.TAP (from UniProt P17361 1-117)”, the binding [2] was “binds”.
